Test results taken from PubChem BioAssay AID2685 (National Center for Advancing Translational Sciences (NCATS), 2010).
The list shows a part of the results. These are further read-outs of the screen, such as a control signal, another cell line or another target. No call is given for them. The list favours compounds with an active or inconclusive main result. The note in brackets gives the kind of curve behind each potency; many fits are weak.

Assay: qHTS Assay for Lipid Storage Modulators in Drosophila S3 Cells;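 on cell number change: cells counted by Cell Tracker Red CMTPX staining in the red channel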
Settings: BODIPY lipid droplet fluorescence, 18-24 h; for cell number change: measured here: cell count max response, cells fed with added oleic acid
Procedure, shortened: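 Drosophila S3 cells loaded with oleic acid (400 uM, as added) and compounds at several concentrations; lipid droplets imaged by 488-nm laser-scanning cytometry, 500–530 nm intensity and object ratio to cell channel. Percent activity normalized to 20 uM Triacsin C.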

[1] = measured here: lipid fluorescence (Fed channel) AC50, cells fed with added oleic acid
[2] = measured here: cell number channel AC50, cells fed with added oleic acid

| SMILES | cell number change [%] | AC50 [1] | AC50 [2] |
| --- | --- | --- | --- |
| NC(=O)C1CCN(C(=O)c2cccc(S(=O)(=O)N3CCCC3)c2)CC1 | -5.1 | 11.6 µM [falling, partial curve] |  |
| Cc1cc(C)nc(NN2C(=O)C=CC2=O)n1 | -65.7 | 29.1 µM [falling, single point] | 29.1 µM [falling, single point] |
| COc1ccc(C(=O)NC(CO)c2nnc(SCc3ccc(Cl)c(Cl)c3)n2C)cc1 (centres undefined) | 1.04 | 7.31 µM [rising, partial curve] |  |
| Cc1ccc(S(=O)(=O)N2CCOCC2)cc1C(=O)NCCN1C(=O)S/C(=C\c2ccccc2Cl)C1=O | -9.04 |  |  |
| CCOC(=O)C1=C(C)Nc2nc(SCC)nn2C1c1ccc(OC)cc1 (centres undefined) | 7.59 |  |  |
| CCOc1ccc(N(CC(=O)OC)S(=O)(=O)c2ccc(OC)c(OC)c2)cc1 |  | 6.51 µM [rising, partial curve, poor fit] |  |
| COc1ccc(C(=O)Nc2cccc(-c3nc4ncccc4o3)c2C)cc1OC |  | 0.259 µM [rising, full curve, poor fit] | 0.291 µM [rising, partial curve, poor fit] |
| COc1ccc(C(=O)N/N=C/c2cn[nH]c2-c2ccc(OC)cc2OC)cc1 | 22.3 | 5.8 µM [rising, full curve, poor fit] |  |
| FC(F)(F)c1cccc(NC(=S)N2CCCC2)c1 |  | 0.13 µM [rising, full curve] | 0.082 µM [rising, full curve, poor fit] |
| NC(=O)c1ccc(NC(=O)COC(=O)c2cc([N+](=O)[O-])ccc2N2CCOCC2)cc1 | 33.9 | 6.51 µM [falling, single point] | 9.2 µM [rising, partial curve] |
| CCOc1ccccc1NC(=O)CSc1nc(=O)n(CCCN2CCOCC2)c2c1CCC2 |  |  | 0.291 µM [falling, partial curve, poor fit] |
| CCn1cc(CNC(=O)/C=C/c2ccc([N+](=O)[O-])cc2)c(C)n1 | 3.16 | 23.1 µM [falling, single point] |  |
| COc1ccc(C(C)NC(=O)CC23CC4CC(CC(C4)C2)C3)cc1 (centres undefined) | -4.11 |  |  |
| Cc1ccc(OCC(=O)Nc2ccncc2)c(C)c1 | -23.9 | 29.1 µM [falling, single point] |  |
| Cn1c(SCC(=O)N2CCN(S(=O)(=O)c3ccc(Cl)cc3)CC2)nc2ccccc21 | 52.9 |  | 11.6 µM [rising, partial curve] |
| O=C(OCc1c(Cl)nc2sccn12)c1cc2c(s1)CCCC2 | 3.65 |  |  |
| COc1cccc(C2C3CN(C)CC=C3C(C#N)=C(N)C2(C#N)C#N)c1OC (centres undefined) |  |  | 1.84 µM [rising, partial curve, poor fit] |
| C=CCN1C(=O)N/C(=C/c2ccc(C)o2)C1=O | -37.2 | 29.1 µM [falling, partial curve, poor fit] | 32.6 µM [falling, single point] |
| COc1ccc(-c2cc3c(=O)n(CC(=O)NCCCc4ccccc4)ncn3n2)cc1 | 33.1 |  | 29.1 µM [rising, single point] |
| CCOC(=O)c1sc(NC(=O)CSc2nccc(C)n2)nc1C | 61.1 |  |  |
| COc1cccc(/C=N/NC(=O)c2ccc(N3CCCC3=O)cc2)c1 | 8.33 |  | 6.51 µM [rising, single point] |

| SMILES | cell number change [%] | AC50 [1] | AC50 [2] |
| --- | --- | --- | --- |
| COc1ccc(CN(CC2CCCO2)C(=O)c2cc3sccc3n2C)c(OC)c1 (centres undefined) | 23.9 | 29.1 µM [rising, single point] |  |
| Cc1cc(N2C(=O)C(O)=C(C(=O)c3ccco3)C2c2ccccc2F)no1 (centres undefined) | 0.348 |  |  |
| CCOC(=O)c1c(-c2ccccc2)csc1NC(=O)CSc1ccccc1 | 30.7 | 7.31 µM [rising, partial curve] | 1.64 µM [rising, full curve, poor fit] |
| Cc1ccc(CNC(=O)CSc2ncc(C(=O)Nc3ccccc3)c(=O)n2C)cc1 | 3 |  |  |
| O=C(Nc1ccc2c(c1)OCCO2)c1cc(F)c(F)cc1Cl | -23.5 | 10.3 µM [rising, partial curve] |  |
| O=C(NC1CCCCC1)C1CCCN(S(=O)(=O)c2cccs2)C1 (centres undefined) | -25.6 | 16.4 µM [falling, partial curve, poor fit] |  |
| CCOC(CNC(=O)C(=O)Nc1cc2c3c(c1)CCC(=O)N3CCC2)OCC | 15.3 | 29.1 µM [falling, single point] |  |
| COc1ccc(NC(=O)c2csc(C)c2)cc1OC |  | 22.4 µM [rising, single point] |  |
| COc1ccc(CC(=O)OCC(=O)c2ccc(S(=O)(=O)N3CCCCC3)cc2)cc1 | -2.69 | 0.731 µM [rising, full curve, poor fit] |  |
| COCC1CCN(Cc2nc(-c3ccc4c(c3)OCO4)no2)C1 (centres undefined) |  | 29.1 µM [rising, single point] |  |
| O=C(NNC(=S)NC1CCCCC1)c1ccccc1Br | 0.472 |  |  |
| COc1ccc(N2C(=O)CN=C2Nc2cccc(C)c2C)cc1OC | 13.7 | 4.11 µM [rising, full curve, poor fit] |  |
| O=C(NCC1CCCN(C(=O)c2cscn2)C1)c1ccccc1Cl (centres undefined) | -2.41 | 6.51 µM [falling, single point] |  |
| Cc1nn(CC(=O)NCCN2CCOCC2)c(C)c1[N+](=O)[O-] | -31 | 0.206 µM [rising, full curve, poor fit] | 29.1 µM [falling, single point] |
| CC(CNS(=O)(=O)c1ccccc1)Sc1ncccn1 (centres undefined) | -11 | 0.00651 µM [falling, full curve, poor fit] |  |
| Clc1ccc(CNCCC2=CCCCC2)cc1 |  | 6.51 µM [falling, single point] | 6.51 µM [falling, single point] |
| CC(=O)c1ccc(NC(=O)Nc2cccc(Cl)c2)cc1 | -78.1 | 29.1 µM [falling, single point] | 5.8 µM [falling, partial curve] |
| CC(CC(=O)O)C(=O)c1ccc(Cl)c([N+](=O)[O-])c1 (centres undefined) | 9.07 | 0.58 µM [falling, single point] | 0.731 µM [falling, single point] |
| Cc1cc(C)c2nc(N3CCCN(C(=O)c4cnccn4)CC3)c(C#N)cc2c1 | -11.5 |  |  |
| O=C(/C=C/c1cccc(Cl)c1Cl)OCC(=O)N1CCOCC1 | -20.6 |  |  |
| Cc1nn(C)cc1CNC(=O)c1cnn2c1NC(c1ccc(Br)cc1)CC2C(F)(F)F (centres undefined) | -14.8 | 0.326 µM [rising, full curve, poor fit] |  |

| SMILES | cell number change [%] | AC50 [1] | AC50 [2] |
| --- | --- | --- | --- |
| COc1ccc(OC)c(NC(=O)CN(Cc2ccc(F)cc2)C2CCCCC2)c1 |  | 4.11 µM [falling, full curve] |  |
| O=C(Cn1cnc2ccccc21)N/N=C/c1ccccc1 | -5.37 |  | 3.26 µM [rising, single point] |
| Cc1nnc(SCC(=O)Nc2cc(C(F)(F)F)ccc2Cl)n1C | -12.4 |  | 0.116 µM [falling, full curve, poor fit] |
| CNCc1ccccc1OCc1ccccc1F | 15.5 | 4.61 µM [rising, single point] |  |
| COC(=O)CC(NC(=O)c1cccs1)c1ccc(OC)c(OC)c1 (centres undefined) | -10 |  | 6.51 µM [falling, single point] |
| COCCOc1ccc(C(F)(F)F)cc1NC(=O)c1ccccc1F | 0.0804 | 2.59 µM [rising, full curve] |  |
| COc1ccccc1NS(=O)(=O)c1ccc(N/N=C/c2c(C)nn(-c3ccccc3)c2N2CCCC2)c([N+](=O)[O-])c1 | -87.4 | 25.9 µM [falling, single point] | 4.11 µM [falling, full curve] |
| Cn1c(=O)c2[nH]c(N3CCOCC3)nc2n(-c2ccccc2)c1=O | 8.12 | 20.6 µM [falling, partial curve] |  |
| O=C(NNC(=O)C1CC(=O)N(Cc2ccccc2)C1)c1ccc(Br)cc1 (centres undefined) | -26.2 | 18.4 µM [rising, partial curve] |  |
| Cn1c(CN2CCN(c3ccc(Cl)cc3)CC2)nc2ccccc21 | 0.212 | 2.31 µM [rising, partial curve] |  |
| CCOC(=O)Cc1cn(C(=O)OC(C)(C)C)c2ccccc12 | -17.1 | 0.116 µM [falling, single point] |  |
| COc1ccccc1NCCC#N | 11.3 | 29.1 µM [falling, single point] |  |
| CN(c1ccc(OCC(=O)OCC(=O)c2c(N)n(C)c(=O)n(C)c2=O)cc1)S(=O)(=O)c1ccc2ccccc2c1 | 7.45 |  |  |
| Cc1ncc(CO)c(/C=N/NC(=O)c2cc3c(s2)CCCC3)c1O | 55.1 | 0.731 µM [rising, single point] | 11.6 µM [rising, partial curve] |
| O=C(Nc1ccc2c(c1)OCO2)OCc1ccccc1 | 1.86 | 0.517 µM [rising, partial curve] |  |
| CCCOc1nc(SCCC)nc2c1cnn2-c1ccccc1 | 86.6 | 29.1 µM [rising, single point] | 16.4 µM [rising, partial curve] |
| CCOc1ccc(NC(=O)NC(C)CC)cc1 (centres undefined) | 18.3 |  | 0.164 µM [falling, full curve, poor fit] |
| Cc1ccc(C(=O)NC(=S)NCC2CCCO2)cc1[N+](=O)[O-] (centres undefined) |  | 0.501 µM [rising, single point] |  |
| Cc1cc2n(n1)C(c1cccs1)Nc1ccccc1-2 (centres undefined) | -8.76 | 6.51 µM [rising, single point] |  |

Taken from above.
Under cell number change [%], `CNCc1ccccc1OCc1ccccc1F` shows 15.5
Under cell number change [%], `O=C(OCc1c(Cl)nc2sccn12)c1cc2c(s1)CCCC2` shows 3.65
